Reference: patent US20170087188A1, “WNT INDUCED MOTILITY AND ENHANCED ENGRAFTMENT OF CELLS” (OTTAWA HOSPITAL RESEARCH INSTITUTE, priority 2014, published 2017)

B1: Wnt7a-HA: HA epitope tagged Wnt7a in conditioned medium produced in COS-1 cells (protein, UniProt O00755 32-349, looked up)
Protein Wnt-7a: LGASIICNKIPGLAPRQRAICQSRPDAIIVIGEGSQMGLDECQFQFRNGRWNCSALGERTVFGKELKVGSREAAFTYAIIAAGVAHAITAACTQGNLSDCGCDKEKQGQYHRDEGWKWGGCSADIRYGIGFAKVFVDAREIKQNARTLMNLHNNEAGRKILEENMKLECKCHGVSGSCTTKTCWTTLPQFRELGYVLKDKYNEAVHVEPVRASRNKRPTFLKIKKPLSYRKPMDTDLVYIEKSPNYCEEDPVTGSVGTQGRACNKTAPQASGCDLMCCGRGYNTHQYARVWQCNCKFHWCCYVKCNTCSERTEMYTCK
modifications: HA tag
B2: Wnt7a: non-canonical Wnt polypeptide (R&D Systems) used to treat or load myogenic cells (protein, UniProt O00755 32-349, looked up)
Protein Wnt-7a: B1 Protein Wnt-7a

Test system: primary myoblasts
Experiment: Endocytosis and intracellular persistence of Wnt7a in myoblasts
Format: cell-based
Settings: after 3 h incubation and washing; primary myoblasts and C2C12 cells

Row | Molecule | time endocytosed Wnt7a is detectable in intracellular structures
1 | B1 | ≥ 72 h
2 | B2 | > 72 h
